In the supplement of paper PMC11006884:
This list holds what a sample rich in targets with a hit left over. This is a noisy data set. Only a part is listed here, and it is no random draw.

Sequences of proteins named here, by UniProt entry; tags and fusion partners are left off. A change or cut given only in a name is not applied to a line headed by its entry.
UniProt Q13144, whole entry, looked up: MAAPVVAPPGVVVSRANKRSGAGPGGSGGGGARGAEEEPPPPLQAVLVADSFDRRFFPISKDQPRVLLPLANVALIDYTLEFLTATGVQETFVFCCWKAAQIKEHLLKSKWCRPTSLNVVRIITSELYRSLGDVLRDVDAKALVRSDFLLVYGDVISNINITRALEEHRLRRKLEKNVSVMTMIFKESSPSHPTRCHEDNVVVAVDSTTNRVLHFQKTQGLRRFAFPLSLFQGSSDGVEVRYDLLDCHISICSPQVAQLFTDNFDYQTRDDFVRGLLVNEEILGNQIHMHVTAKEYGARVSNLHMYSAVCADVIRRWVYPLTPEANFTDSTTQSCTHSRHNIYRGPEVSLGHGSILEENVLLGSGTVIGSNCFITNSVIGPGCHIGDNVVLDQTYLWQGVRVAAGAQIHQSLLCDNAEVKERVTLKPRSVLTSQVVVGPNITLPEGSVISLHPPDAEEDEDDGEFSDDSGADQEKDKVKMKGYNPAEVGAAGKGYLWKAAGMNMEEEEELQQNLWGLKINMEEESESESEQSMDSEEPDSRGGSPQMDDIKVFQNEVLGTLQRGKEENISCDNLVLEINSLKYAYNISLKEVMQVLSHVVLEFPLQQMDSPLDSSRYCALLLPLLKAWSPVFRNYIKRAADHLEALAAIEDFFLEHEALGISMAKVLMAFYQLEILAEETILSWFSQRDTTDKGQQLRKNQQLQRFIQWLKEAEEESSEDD
UniProt Q13151: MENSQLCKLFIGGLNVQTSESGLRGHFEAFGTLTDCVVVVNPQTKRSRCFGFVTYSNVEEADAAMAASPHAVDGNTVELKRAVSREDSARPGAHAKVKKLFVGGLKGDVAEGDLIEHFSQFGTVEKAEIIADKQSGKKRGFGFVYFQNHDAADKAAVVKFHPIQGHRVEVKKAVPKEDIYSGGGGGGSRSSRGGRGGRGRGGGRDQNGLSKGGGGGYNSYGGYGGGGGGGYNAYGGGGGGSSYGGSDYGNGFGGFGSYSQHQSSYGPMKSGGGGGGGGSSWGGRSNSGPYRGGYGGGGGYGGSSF
UniProt Q13243: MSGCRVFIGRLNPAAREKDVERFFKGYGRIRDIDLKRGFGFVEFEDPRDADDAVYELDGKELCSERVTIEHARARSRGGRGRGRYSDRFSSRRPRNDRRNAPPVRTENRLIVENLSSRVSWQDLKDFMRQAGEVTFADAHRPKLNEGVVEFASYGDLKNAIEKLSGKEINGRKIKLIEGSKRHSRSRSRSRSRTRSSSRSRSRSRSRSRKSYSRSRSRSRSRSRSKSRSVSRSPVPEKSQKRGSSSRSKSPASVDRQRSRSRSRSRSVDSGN
UniProt Q13111, whole entry, looked up: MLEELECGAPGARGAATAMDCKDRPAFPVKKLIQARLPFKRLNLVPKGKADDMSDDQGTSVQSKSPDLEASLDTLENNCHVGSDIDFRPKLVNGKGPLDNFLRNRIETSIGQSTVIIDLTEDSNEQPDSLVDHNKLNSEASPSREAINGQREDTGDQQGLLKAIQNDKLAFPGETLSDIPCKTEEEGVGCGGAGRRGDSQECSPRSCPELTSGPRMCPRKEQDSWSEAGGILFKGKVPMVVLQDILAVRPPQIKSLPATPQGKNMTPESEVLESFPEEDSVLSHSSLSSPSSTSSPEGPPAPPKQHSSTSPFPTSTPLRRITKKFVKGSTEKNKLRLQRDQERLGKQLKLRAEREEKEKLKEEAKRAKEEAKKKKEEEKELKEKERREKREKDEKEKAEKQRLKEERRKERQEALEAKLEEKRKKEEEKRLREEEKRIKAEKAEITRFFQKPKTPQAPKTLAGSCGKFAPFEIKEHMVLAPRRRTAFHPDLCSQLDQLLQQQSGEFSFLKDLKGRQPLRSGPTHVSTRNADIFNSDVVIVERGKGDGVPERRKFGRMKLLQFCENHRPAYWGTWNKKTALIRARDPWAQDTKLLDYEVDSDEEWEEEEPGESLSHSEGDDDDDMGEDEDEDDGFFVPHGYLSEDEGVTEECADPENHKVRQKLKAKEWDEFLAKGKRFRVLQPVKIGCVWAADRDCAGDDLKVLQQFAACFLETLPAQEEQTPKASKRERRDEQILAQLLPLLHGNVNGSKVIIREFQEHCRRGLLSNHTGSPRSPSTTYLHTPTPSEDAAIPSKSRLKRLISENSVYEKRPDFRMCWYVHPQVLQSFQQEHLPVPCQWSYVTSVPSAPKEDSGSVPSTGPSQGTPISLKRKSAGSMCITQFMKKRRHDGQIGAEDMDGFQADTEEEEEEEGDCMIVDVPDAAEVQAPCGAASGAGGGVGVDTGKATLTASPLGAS
UniProt Q09161: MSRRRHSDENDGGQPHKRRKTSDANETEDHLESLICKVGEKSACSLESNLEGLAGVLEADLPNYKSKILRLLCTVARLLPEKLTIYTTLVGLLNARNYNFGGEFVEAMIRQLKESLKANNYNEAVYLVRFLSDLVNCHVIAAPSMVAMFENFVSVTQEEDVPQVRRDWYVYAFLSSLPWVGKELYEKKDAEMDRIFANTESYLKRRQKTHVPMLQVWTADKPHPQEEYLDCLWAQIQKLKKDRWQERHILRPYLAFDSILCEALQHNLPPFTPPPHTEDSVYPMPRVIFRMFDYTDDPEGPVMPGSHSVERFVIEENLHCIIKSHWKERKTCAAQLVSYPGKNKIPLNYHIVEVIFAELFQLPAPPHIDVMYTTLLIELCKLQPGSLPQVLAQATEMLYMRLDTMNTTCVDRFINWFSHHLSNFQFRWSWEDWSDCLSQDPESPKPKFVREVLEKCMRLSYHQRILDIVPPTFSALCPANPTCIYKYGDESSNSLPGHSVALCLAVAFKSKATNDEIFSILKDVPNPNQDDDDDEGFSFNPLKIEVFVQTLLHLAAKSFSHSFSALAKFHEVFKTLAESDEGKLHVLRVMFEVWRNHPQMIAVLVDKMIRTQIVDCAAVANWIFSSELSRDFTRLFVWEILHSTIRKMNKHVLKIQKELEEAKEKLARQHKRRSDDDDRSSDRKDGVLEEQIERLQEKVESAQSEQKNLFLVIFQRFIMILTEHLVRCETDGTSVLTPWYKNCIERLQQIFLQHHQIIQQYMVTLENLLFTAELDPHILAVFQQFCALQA
UniProt Q12834, whole entry: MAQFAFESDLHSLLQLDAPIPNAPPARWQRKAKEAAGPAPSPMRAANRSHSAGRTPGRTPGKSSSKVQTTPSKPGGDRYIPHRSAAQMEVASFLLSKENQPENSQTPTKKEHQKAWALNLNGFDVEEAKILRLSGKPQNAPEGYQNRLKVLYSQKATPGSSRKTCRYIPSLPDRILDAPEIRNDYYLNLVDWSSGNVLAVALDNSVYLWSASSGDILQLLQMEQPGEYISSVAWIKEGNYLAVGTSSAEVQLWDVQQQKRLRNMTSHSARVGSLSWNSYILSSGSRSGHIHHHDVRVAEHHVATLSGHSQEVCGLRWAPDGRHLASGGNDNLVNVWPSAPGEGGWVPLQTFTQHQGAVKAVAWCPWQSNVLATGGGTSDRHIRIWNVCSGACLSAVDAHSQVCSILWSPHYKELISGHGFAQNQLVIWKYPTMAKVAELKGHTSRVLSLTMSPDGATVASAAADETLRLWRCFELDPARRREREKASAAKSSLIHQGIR
UniProt Q13163: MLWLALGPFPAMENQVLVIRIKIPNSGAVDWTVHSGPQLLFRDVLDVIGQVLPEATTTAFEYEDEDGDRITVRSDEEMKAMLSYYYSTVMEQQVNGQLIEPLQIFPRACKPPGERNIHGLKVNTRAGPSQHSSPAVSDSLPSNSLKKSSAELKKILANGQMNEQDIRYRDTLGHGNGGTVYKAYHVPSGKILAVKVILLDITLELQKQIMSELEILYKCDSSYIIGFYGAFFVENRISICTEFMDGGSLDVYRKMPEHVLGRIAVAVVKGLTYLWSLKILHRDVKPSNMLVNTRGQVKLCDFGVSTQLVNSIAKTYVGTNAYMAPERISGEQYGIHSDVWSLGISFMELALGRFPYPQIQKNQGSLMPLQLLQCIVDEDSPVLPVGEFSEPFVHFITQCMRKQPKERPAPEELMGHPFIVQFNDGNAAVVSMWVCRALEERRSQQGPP
UniProt Q13325: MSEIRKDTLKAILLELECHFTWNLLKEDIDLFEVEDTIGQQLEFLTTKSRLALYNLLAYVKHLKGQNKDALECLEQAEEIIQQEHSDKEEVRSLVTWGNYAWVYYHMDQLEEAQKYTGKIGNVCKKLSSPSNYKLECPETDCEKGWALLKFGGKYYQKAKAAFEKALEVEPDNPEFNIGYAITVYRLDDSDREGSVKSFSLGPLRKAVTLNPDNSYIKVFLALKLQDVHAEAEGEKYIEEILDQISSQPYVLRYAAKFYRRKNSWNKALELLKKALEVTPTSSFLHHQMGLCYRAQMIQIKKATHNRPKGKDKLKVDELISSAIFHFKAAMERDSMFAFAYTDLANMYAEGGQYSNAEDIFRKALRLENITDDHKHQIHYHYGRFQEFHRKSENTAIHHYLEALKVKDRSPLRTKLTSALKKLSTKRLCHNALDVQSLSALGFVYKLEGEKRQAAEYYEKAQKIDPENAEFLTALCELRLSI
UniProt Q06323: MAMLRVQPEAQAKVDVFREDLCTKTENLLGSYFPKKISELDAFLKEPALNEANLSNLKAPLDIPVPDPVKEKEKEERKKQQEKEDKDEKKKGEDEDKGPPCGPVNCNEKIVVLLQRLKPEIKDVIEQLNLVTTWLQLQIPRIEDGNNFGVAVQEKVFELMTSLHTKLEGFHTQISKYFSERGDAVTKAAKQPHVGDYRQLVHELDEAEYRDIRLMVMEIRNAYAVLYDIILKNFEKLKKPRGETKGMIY
UniProt Q04637, whole entry, looked up: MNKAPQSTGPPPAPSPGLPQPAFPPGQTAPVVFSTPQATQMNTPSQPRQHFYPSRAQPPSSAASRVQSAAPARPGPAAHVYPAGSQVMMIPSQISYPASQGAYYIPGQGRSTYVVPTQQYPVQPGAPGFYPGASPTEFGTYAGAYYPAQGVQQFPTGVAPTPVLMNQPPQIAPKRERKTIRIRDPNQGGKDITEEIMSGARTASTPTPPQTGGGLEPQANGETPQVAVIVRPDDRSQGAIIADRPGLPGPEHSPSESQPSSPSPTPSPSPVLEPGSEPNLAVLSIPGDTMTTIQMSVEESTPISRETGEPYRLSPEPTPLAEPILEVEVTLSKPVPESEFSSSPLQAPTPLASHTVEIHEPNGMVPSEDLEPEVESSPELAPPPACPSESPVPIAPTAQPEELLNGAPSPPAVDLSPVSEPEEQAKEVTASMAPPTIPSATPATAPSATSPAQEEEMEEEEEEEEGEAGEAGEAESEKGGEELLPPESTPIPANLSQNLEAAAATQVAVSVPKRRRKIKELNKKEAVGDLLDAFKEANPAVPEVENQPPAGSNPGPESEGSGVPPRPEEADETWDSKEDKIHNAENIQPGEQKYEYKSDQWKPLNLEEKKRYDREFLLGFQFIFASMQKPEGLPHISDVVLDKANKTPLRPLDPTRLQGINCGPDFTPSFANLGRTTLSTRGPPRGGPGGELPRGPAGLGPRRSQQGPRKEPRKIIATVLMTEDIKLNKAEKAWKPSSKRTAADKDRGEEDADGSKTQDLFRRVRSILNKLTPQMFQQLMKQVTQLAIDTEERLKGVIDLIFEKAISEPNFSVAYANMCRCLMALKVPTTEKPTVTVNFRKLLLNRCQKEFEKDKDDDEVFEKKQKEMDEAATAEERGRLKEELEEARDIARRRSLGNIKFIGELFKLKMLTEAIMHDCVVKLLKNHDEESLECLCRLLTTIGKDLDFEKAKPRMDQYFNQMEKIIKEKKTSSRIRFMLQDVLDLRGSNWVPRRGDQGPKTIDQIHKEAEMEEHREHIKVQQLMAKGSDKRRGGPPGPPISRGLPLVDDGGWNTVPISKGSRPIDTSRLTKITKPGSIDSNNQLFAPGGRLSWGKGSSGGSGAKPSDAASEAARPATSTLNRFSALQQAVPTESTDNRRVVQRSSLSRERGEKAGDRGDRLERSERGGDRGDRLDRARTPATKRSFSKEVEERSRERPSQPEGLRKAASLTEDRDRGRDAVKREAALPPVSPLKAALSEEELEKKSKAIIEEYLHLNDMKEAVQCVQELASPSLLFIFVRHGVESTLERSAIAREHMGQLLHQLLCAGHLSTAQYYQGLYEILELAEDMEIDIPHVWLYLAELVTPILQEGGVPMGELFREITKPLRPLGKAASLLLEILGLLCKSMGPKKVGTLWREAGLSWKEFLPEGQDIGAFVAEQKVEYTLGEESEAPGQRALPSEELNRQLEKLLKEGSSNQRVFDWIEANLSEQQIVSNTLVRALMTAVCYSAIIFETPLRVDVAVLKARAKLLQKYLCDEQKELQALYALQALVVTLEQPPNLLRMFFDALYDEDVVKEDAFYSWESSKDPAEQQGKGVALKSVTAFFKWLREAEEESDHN

Compound: COC(=O)/C=C/c1ccccc1 [methyl cinnamate]
Test: log2 ratio of iodoacetamide-alkyne labeling of the cysteine site, DMSO over compound (competition); higher = stronger covalent engagement of the cysteine by the compound, active = 1 or more
Conditions: 500 µM; treatment time 1 h; system: HEK293T cell lysate
How it was run: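 HEK293T lysate (2 mg/mL) was treated with DMSO or electrophile (500 µM, 1 h, ambient temperature), then iodoacetamide alkyne (1 h), clicked to sCIP-TMT reagents, pooled, trypsin-digested overnight at 37 °C, streptavidin-enriched and acid-eluted. Peptides were run on Orbitrap Eclipse LC-MS/MS with FAIMS and quantified in FragPipe. The log2 competition ratio per cysteine is mean control-channel over mean compound-channel reporter intensity. Duplicate channels and three replicates were used, and cysteines quantified in only one replicate were excluded.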

log2 ratio of iodoacetamide-alkyne labeling, inactive:
EIF2B5 C335 (UniProt Q13144) 0.0311
HNRNPA0 C7 (UniProt Q13151) 0.231
PTPN11 C104 (UniProt Q06124) 0.176
PTPN11 C259 (UniProt Q06124) -0.029
TLE1 C526 (UniProt Q04724) 0.117
UniProt Q13243_C63 0.0385
LGALS3BP C496 (UniProt Q08380) 0.29
NNT C936 (UniProt Q13423) -0.0296
CHAF1A C190 (UniProt Q13111) 0.679
NUP160 C1166 (UniProt Q12769) 0.185
UniProt Q12904_C161 0.108
UniProt Q13131_C238 0.0564
DLX2 C230 (UniProt Q07687) 0.127
NCBP1 C616 (UniProt Q09161) -0.107
AKAP12 C1521 (UniProt Q02952) 0.357
AHNAK C2162 (UniProt Q09666) 0.351
UniProt Q02750_C207 0.0617
CSTF3 C628 (UniProt Q12996) 0.167
CSTF3 C176 (UniProt Q12996) 0.223
GTF3C1 C1783 (UniProt Q12789) -0.0644
CDC20 C364 (UniProt Q12834) 0.221
DST C5527 (UniProt Q03001) 0.176
NCBP1 C36 (UniProt Q09161) 0.176
EIF2B5 C196 (UniProt Q13144) 0.047
FMR1 C584 (UniProt Q06787) 0.202
PTPN11 C567 (UniProt Q06124) 0.366
TRIM28 C713 (UniProt Q13263) -0.355
UniProt Q13163_C300 0.198
IFIT5 C137 (UniProt Q13325) 0.161
PSME1 C22 (UniProt Q06323) 0.672
GAB1 C8 (UniProt Q13480) 0.161
SF3A3 C274 (UniProt Q12874) 0.16
EIF4G1 C1265 (UniProt Q04637) 0.0374
TBL3 C696 (UniProt Q12788) 0.105
CHAF1A C79 (UniProt Q13111) -0.0967
PTPN13 C2229 (UniProt Q12923) 0.116
EXOSC9 C9 (UniProt Q06265) 0.197

Reprinted at random: 2 entries already listed.
log2 ratio of iodoacetamide-alkyne labeling, inactive:
CHAF1A C190 (UniProt Q13111) 0.679
NUP160 C1166 (UniProt Q12769) 0.185
